Results: paper PMC3858806
Residue numbers refer to the chain shown, from its start. Results are given in words; binding and its absence hold for the method and conditions named. In cells and extracts the contact can be indirect. For part of these data: Binding calls can cover weak binding; strength is not graded here. For part of these data: Tags and fused reporters may be left off the sequences shown.

Amino acid sequences for entries named in this document (tags omitted). A change or cut given only in a name is not applied to a line headed by its entry.
UniProt O76742: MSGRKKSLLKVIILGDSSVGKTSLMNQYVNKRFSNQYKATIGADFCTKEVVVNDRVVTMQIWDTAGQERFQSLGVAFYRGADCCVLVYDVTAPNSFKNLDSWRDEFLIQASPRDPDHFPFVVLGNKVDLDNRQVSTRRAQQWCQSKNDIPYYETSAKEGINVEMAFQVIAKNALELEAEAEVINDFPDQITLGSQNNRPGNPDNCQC
UniProt Q9W0H9: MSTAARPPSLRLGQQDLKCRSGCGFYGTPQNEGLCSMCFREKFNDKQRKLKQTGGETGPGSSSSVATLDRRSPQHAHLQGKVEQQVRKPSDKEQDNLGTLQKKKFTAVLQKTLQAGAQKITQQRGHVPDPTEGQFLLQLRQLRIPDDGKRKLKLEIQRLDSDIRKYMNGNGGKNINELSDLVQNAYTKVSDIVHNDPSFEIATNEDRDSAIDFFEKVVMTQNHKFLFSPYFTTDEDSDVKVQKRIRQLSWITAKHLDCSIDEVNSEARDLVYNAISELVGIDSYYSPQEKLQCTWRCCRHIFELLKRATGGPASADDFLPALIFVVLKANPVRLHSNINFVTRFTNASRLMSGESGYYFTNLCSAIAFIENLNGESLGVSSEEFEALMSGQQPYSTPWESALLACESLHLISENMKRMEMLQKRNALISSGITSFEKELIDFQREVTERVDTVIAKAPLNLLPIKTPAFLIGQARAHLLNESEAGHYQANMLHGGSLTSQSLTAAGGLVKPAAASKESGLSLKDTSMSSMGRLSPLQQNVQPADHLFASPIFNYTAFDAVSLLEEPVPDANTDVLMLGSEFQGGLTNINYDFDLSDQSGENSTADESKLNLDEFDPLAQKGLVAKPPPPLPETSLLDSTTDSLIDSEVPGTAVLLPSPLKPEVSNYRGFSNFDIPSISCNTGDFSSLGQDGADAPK
UniProt Q9W2M0: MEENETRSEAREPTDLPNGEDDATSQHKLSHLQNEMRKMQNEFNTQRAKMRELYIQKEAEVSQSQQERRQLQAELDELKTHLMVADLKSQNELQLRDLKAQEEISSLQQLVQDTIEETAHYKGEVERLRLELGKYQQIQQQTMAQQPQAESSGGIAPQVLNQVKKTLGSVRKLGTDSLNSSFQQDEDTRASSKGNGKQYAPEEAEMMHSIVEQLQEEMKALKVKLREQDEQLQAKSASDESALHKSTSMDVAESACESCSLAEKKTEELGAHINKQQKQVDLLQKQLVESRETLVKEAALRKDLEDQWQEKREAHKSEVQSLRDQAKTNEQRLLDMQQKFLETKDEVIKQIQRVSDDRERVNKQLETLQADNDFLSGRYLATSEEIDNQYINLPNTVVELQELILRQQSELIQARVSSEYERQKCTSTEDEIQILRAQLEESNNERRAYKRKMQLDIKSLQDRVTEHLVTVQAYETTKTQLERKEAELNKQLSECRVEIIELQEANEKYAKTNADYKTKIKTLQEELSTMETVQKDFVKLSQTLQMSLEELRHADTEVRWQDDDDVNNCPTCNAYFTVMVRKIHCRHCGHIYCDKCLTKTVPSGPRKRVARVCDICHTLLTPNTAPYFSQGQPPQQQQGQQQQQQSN

How the values were obtained:
[1] = target: T1, GST-Rab5 (Drosophila, wild type) (Drosophila melanogaster) (UniProt Q9V3I2); experiment: pull-down; GST-Rab5 on Glutathione Sepharose 4B beads loaded with GTP (90 min, room temperature); S2 cell lysate with the EGFP-tagged Rbpn-5 construct added, 2 h at 4 °C; washed with 250 mM NaCl; blot with anti-Rbpn-5 or anti-EGFP; only the target purified
T1 sequence: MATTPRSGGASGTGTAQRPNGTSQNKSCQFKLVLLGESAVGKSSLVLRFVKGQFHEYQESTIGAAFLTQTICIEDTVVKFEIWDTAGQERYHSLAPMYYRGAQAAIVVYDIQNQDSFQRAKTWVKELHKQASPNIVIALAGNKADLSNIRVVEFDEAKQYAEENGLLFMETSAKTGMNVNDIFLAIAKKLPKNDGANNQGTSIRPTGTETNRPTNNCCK

[2] = target: T2, GST-Rab11 (Drosophila) (Drosophila melanogaster) (UniProt O18335); experiment: pull-down; GST-tagged protein (Rab5 mutants, other Rabs, Rabex-5) on glutathione beads, nucleotide loading not stated for these; S2 cell lysate with EGFP-Rbpn-5 added, 2 h at 4 °C; washed with 250 mM NaCl; blot with anti-Rbpn-5; only the target purified
T2 sequence: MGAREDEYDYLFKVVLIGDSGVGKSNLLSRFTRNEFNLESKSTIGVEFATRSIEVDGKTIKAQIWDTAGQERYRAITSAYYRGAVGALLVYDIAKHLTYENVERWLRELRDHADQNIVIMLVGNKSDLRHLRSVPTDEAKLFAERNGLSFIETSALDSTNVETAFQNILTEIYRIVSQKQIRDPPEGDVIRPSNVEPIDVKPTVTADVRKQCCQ

[3] = target: GST-DN-Rab5 (Drosophila dominant-negative Rab5, printed Rab5N43S) (Drosophila melanogaster) (UniProt Q9V3I2); experiment: as above
[4] = target: GST-Rab7 (Drosophila) (Drosophila melanogaster) (UniProt O76742); experiment: as above
[5] = target: T3, GST-CA-Rab5 (Drosophila Rab5Q88L, constitutively active) (Drosophila melanogaster) (UniProt Q9V3I2); experiment: as above
T3 sequence: T1 sequence with Q88L

[6] = target: GST-Rabex-5 (Drosophila) (Drosophila melanogaster) (UniProt Q9W0H9); experiment: as above
[7] = target: T1, GST-Rab5 (Drosophila, wild type) (Drosophila melanogaster); experiment: pull-down; GST-Rab5 on Glutathione Sepharose 4B beads loaded with GDP (90 min, room temperature); S2 cell lysate with EGFP-Rbpn-5 added, 2 h at 4 °C; washed with 250 mM NaCl; blot with anti-Rbpn-5; only the target purified

binding [1] | binding [2] | binding [3] | binding [4] | binding [5] | binding [6] | binding [7] | Substance
binds | no binding | no binding | no binding | binds | binds | no binding (only in the presence of GDP) | EGFP-Rbpn-5 (Drosophila Rabaptin-5, full length) (from UniProt Q9W2M0)
binds | – | – | – | – | – | – | EGFP-Rbpn-5-C (C-terminal half of Rbpn-5, amino acids 340-642) (Drosophila melanogaster) (domain or fragment)
no binding | – | – | – | – | – | – | EGFP-Rbpn-5-N (N-terminal half of Rbpn-5, amino acids 1-345) (Drosophila melanogaster) (domain or fragment)
